The text below walks through data of patent US20160195533A1, “METHOD FOR SCREENING EMT INHIBITOR” (Medicinal Bioconvergence Research Center, priority 2015, published 2016).

By UniProt entry, the sequences of proteins in these tests, tags left out. Where a name states a change or a piece, a line headed by the entry shows the natural chain unless it says otherwise.
UniProt O95863: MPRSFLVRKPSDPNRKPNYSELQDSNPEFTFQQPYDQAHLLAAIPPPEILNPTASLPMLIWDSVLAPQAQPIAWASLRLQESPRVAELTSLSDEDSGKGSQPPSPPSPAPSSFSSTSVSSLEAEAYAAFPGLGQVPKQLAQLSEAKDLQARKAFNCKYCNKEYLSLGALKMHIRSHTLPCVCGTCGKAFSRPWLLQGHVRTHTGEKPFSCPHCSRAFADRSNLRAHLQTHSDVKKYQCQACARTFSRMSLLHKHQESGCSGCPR

Results are given in words; binding and its absence hold for the method and conditions named. Binding seen in cells or lysates may run through a third protein. Some entries that bind do so weakly or less than the wild type. Tags and fused reporters may be left off the sequences shown.

This assay deals with Flag-tagged Snail1 (pCMV-Tag2B N-terminal Flag-tagged Snail1 expression vector, Addgene) (human) (UniProt O95863). The assay can be described thus: Strep pull-down (MagSTREP type 2HC) from co-transfected HEK293T cells, anti-Flag western blot. On the technique in general: Immunoblotting shows a protein as a band on a membrane.

B1: Strep-tagged WHEP-PRS domain of EPRS (pEXPR-IBA105-PRS) (enzyme, not shown: small tags and cut ends)
chain: VEATKNETSAPFKERPTPSLNNNCTTSEDSLVLYNRVAVQGDVVRELKAKKAPKEDVDAAVKQLLSLKAEYKEKTGQEYKPGNPPAEIGQNISSNSSASILESKSLYDEVAAQGEVVRKLKAEKSPKAKINEAVECLLSLKAQYKEKTGKEYIPGQPPLSQSSDSSPTRNSEPAGLETPEAKVLFDKVASQGEVVRKLKTEKAPKDQVDIAVQELLQLKAQYKSLIGVEYKPVSATGAEDKDKKKKEKENKSEKQNKPQKQNDGQRKDPSKNQGGGLSSSGAGEGQGPKKQTRLGLEAKKEENLADWYSQVITKSEMIEYHDISGCYILRPWAYAIWEAIKDFFDAEIKKLGVENCYFPMFVSQSALEKEKTHVADFAPEVAWVTRSGKTELAEPIAIRPTSETVMYPAYAKWVQSHRDLPIKLNQWCNVVRWEFKHPQPFLRTREFLWQEGHSAFATMEEAAEEVLQILDLYAQVYEELLAIPVVKGRKTEKEKFAGGDYTTTIEAFISASGRAIQGGTSHHLGQNFSKMFEIVFEDPKIPGEKQFAYQNSWGLTTRTIGVMTMVHGDNMGLVLPPRVACVQVVIIPCGITNALSEEDKEALIAKCNDYRRRLLSVNIRVRADLRDNYSPGWKFNHWELKGVPIRLEVGPRDMKSCQFVAVRRDTGEKLTVAENEAETKLQAILEDIQVTLFTRASEDLKTHMVVANTMEDFQKILDSGKIVQIPFCGEIDCEDWIKKTTARDQDLEPGAPSMGAKSLCIPFKPLCELQPGAKCVCGKNPAKYYTLFGRSY
Consider B1, for which the binding result is listed as “binds”.

B2: Strep-tagged ERS-WHEP domain of EPRS (pEXPR-IBA105-ERS) (enzyme, not shown: small tags and cut ends)
chain: MATLSLTVNSGDPPLGALLAVEHVKDDVSISVEEGKENILHVSENVIFTDVNSILRYLARVATTAGLYGSNLMEHTEIDHWLEFSATKLSSCDSFTSTINELNHCLSLRTYLVGNSLSLADLCVWATLKGNAAWQEQLKQKKAPVHVKRWFGFLEAQQAFQSVGTKWDVSTTKARVAPEKKQDVGKFVELPGAEMGKVTVRFPPEASGYLHIGHAKAALLNQHYQVNFKGKLIMRFDDTNPEKEKEDFEKVILEDVAMLHIKPDQFTYTSDHFETIMKYAEKLIQEGKAYVDDTPAEQMKAEREQRIDSKHRKNPIEKNLQMWEEMKKGSQFGQSCCLRAKIDMSSNNGCMRDPTLYRCKIQPHPRTGNKYNVYPTYDFACPIVDSIEGVTHALRTTEYHDRDEQFYWIIEALGIRKPYIWEYSRLNLNNTVLSKRKLTWFVNEGLVDGWDDPRFPTVRGVLRRGMTVEGLKQFIAAQGSSRSVVNMEWDKIWAFNKKVIDPVAPRYVALLKKEVIPVNVPEAQEEMKEVAKHPKNPEVGLKPVWYSPKVFIEGADAETFSEGEMVTFINWGNLNITKIHKNADGKIISLDAKLNLENKDYKKTTKVTWLAETTHALPIPVICVTYEHLITKPVLGKDEDFKQYVNKNSKHEELMLGDPCLKDLKKGDIIQLQRRGFFICDQPYEPVSPYSCKEAPCVLIYIPDGHTKEMPTSGSKEKTKVEATKNETSAPFKERPTPSLNNNCTTSEDSLVLYNRVAVQGDVVRELKAKKAPKEDVDAAVKQLLSLKAEYKEKTGQEYKPGNPPAEIGQNISSNSSASILESKSLYDEVAAQGEVVRKLKAEKSPKAKINEAVECLLSLKAQYKEKTGKEYIPGQPPLSQSSDSSPTRNSEPAGLETPEAKVLFDKVASQGEVVRKLKTEKAPKDQVDIAVQELLQLKAQYKSLIGVEYKPVSATGAEDKDKKKKEKENKSEKQNKPQKQNDGQRKDPSKNQGGGLSSS
As for B2, the binding result is recorded as “binds”.
